B1: Kinesin family member 23 (protein, UniProt Q02241 1-960)
chain: MKSARAKTPRKPTVKKGSQTNLKDPVGVYCRVRPLGFPDQECCIEVINNTTVQLHTPEGYRLNRNGDYKETQYSFKQVFGTHTTQKELFDVVANPLVNDLIHGKNGLLFTYGVTGSGKTHTMTGSPGEGGLLPRCLDMIFNSIGSFQAKRYVFKSNDRNSMDIQCEVDALLERQKREAMPNPKTSSSKRQVDPEFADMITVQEFCKAEEVDEDSVYGVFVSYIEIYNNYIYDLLEEVPFDPIKPKPPQSKLLREDKNHNMYVAGCTEVEVKSTEEAFEVFWRGQKKRRIANTHLNRESSRSHSVFNIKLVQAPLDADGDNVLQEKEQITISQLSLVDLAGSERTNRTRAEGNRLREAGNINQSLMTLRTCMDVLRENQMYGTNKMVPYRDSKLTHLFKNYFDGEGKVRMIVCVNPKAEDYEENLQVMRFAEVTQEVEVARPVDKAICGLTPGRRYRNQPRGPVGNEPLVTDVVLQSFPPLPSCEILDINDEQTLPRLIEALEKRHNLRQMMIDEFNKQSNAFKALLQEFDNAVLSKENHMQGKLNEKEKMISGQKLEIERLEKKNKTLEYKIEILEKTTTIYEEDKRNLQQELETQNQKLQRQFSDKRRLEARLQGMVTETTMKWEKECERRVAAKQLEMQNKLWVKDEKLKQLKAIVTEPKTEKPERPSRERDREKVTQRSVSPSPVPLSSNYIAQISNGQQLMSQPQLHRRSNSCSSISVASCISEWEQKIPTYNTPLKVTSIARRRQQEPGQSKTCIVSDRRRGMYWTEGREVVPTFRNEIEIEEDHCGRLLFQPDQNAPPIRLRHRRSRSAGDRWVDHKPASNMQTETVMQPHVPHAITVSVANEKALAKCEKYMLTHQELASDGEIETKLIKGDIYKTRGGGQSVQFTDIETLKQESPNGSRKRRSSTVAPAQPDGAESEWTDVETRCSVAVEMRAGSQLGPGYQHHAQPKRKKP
B2: Kinesin family member 2C (protein, UniProt Q99661 1-725)
chain: MAMDSSLQARLFPGLAIKIQRSNGLIHSANVRTVNLEKSCVSVEWAEGGATKGKEIDFDDVAAINPELLQLLPLHPKDNLPLQENVTIQKQKRRSVNSKIPAPKESLRSRSTRMSTVSELRITAQENDMEVELPAAANSRKQFSVPPAPTRPSCPAVAEIPLRMVSEEMEEQVHSIRGSSSANPVNSVRRKSCLVKEVEKMKNKREEKKAQNSEMRMKRAQEYDSSFPNWEFARMIKEFRATLECHPLTMTDPIEEHRICVCVRKRPLNKQELAKKEIDVISIPSKCLLLVHEPKLKVDLTKYLENQAFCFDFAFDETASNEVVYRFTARPLVQTIFEGGKATCFAYGQTGSGKTHTMGGDLSGKAQNASKGIYAMASRDVFLLKNQPCYRKLGLEVYVTFFEIYNGKLFDLLNKKAKLRVLEDGKQQVQVVGLQEHLVNSADDVIKMIDMGSACRTSGQTFANSNSSRSHACFQIILRAKGRMHGKFSLVDLAGNERGADTSSADRQTRMEGAEINKSLLALKECIRALGQNKAHTPFRESKLTQVLRDSFIGENSRTCMIATISPGISSCEYTLNTLRYADRVKELSPHSGPSGEQLIQMETEEMEACSNGALIPGNLSKEEEELSSQMSSFNEAMTQIRELEEKAMEELKEIIQQGPDWLELSEMTEQPDYDLETFVNKAESALAQQAKHFSALRDVIKALRLAMQLEEQASRQISSKKRPQ

Sequences of proteins named here, by UniProt entry; tags and fusion partners are left off.
UniProt P35222: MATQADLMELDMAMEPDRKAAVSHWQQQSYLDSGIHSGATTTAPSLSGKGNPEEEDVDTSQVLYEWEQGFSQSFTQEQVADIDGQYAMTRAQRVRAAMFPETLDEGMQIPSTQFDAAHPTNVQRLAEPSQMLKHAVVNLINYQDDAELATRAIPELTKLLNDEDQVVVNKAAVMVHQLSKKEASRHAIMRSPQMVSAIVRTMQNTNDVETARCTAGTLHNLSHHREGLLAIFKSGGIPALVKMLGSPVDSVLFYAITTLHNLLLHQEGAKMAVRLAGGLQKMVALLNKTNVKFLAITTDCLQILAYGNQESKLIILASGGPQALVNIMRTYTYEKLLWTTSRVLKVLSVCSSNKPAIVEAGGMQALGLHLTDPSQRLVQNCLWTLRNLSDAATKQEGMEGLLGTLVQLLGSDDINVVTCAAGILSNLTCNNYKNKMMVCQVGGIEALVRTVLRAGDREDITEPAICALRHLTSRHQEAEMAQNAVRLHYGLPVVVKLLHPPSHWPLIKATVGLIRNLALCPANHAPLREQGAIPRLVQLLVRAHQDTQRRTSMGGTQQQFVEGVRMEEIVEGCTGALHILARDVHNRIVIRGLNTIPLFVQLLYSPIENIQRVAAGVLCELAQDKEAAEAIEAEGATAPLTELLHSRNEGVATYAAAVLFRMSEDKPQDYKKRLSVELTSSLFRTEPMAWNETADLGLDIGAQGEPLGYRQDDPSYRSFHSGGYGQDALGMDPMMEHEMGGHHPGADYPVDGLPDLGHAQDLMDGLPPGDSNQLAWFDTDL
UniProt Q14008: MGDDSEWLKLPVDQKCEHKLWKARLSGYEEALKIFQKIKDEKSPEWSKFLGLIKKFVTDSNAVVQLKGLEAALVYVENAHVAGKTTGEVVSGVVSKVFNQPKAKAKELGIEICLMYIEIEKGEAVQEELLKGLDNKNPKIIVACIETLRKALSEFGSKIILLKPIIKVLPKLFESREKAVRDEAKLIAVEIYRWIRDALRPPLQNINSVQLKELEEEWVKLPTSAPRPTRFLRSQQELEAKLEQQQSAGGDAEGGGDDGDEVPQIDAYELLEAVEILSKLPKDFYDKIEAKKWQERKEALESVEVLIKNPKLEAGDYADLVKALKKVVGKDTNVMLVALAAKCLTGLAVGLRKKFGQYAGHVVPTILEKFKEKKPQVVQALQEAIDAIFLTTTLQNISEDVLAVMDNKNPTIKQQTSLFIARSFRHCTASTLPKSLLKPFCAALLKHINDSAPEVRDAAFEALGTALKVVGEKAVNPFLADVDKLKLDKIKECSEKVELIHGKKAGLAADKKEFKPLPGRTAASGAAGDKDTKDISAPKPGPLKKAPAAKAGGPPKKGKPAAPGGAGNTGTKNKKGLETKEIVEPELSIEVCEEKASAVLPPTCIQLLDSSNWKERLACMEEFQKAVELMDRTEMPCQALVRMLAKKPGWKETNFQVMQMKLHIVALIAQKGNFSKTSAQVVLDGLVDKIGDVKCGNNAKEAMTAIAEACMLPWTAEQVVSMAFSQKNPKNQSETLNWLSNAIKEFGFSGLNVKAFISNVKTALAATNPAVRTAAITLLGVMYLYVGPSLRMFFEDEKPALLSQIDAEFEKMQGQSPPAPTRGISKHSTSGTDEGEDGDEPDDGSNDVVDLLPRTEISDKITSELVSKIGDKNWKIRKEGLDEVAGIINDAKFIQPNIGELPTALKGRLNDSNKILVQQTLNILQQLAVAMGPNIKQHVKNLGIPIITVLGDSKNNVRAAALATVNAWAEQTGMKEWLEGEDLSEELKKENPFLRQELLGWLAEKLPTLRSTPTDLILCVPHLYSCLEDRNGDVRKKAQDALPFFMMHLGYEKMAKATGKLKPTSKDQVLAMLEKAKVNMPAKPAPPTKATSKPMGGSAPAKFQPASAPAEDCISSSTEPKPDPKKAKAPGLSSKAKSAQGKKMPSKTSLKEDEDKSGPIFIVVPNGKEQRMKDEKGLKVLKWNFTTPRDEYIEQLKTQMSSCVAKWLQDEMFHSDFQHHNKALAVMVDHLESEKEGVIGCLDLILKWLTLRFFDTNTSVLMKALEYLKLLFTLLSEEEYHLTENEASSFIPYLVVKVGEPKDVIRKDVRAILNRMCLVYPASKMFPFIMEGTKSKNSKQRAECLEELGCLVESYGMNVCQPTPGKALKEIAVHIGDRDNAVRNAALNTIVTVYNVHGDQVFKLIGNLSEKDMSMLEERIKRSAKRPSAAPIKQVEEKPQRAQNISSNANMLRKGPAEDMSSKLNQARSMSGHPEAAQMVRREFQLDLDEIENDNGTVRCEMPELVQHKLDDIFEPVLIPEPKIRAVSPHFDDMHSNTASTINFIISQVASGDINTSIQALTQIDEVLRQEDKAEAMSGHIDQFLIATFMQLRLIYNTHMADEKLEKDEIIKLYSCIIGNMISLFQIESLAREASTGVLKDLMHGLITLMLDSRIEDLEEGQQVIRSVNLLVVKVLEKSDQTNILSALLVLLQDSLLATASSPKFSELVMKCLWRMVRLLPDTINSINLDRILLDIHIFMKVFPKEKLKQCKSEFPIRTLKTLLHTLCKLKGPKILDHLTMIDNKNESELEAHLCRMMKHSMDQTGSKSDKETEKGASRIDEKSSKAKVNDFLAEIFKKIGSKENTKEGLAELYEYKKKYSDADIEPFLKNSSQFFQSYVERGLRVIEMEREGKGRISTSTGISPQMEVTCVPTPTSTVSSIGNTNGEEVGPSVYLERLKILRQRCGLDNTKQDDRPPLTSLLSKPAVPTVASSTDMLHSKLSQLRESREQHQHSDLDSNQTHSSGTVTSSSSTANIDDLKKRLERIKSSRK
UniProt P12270: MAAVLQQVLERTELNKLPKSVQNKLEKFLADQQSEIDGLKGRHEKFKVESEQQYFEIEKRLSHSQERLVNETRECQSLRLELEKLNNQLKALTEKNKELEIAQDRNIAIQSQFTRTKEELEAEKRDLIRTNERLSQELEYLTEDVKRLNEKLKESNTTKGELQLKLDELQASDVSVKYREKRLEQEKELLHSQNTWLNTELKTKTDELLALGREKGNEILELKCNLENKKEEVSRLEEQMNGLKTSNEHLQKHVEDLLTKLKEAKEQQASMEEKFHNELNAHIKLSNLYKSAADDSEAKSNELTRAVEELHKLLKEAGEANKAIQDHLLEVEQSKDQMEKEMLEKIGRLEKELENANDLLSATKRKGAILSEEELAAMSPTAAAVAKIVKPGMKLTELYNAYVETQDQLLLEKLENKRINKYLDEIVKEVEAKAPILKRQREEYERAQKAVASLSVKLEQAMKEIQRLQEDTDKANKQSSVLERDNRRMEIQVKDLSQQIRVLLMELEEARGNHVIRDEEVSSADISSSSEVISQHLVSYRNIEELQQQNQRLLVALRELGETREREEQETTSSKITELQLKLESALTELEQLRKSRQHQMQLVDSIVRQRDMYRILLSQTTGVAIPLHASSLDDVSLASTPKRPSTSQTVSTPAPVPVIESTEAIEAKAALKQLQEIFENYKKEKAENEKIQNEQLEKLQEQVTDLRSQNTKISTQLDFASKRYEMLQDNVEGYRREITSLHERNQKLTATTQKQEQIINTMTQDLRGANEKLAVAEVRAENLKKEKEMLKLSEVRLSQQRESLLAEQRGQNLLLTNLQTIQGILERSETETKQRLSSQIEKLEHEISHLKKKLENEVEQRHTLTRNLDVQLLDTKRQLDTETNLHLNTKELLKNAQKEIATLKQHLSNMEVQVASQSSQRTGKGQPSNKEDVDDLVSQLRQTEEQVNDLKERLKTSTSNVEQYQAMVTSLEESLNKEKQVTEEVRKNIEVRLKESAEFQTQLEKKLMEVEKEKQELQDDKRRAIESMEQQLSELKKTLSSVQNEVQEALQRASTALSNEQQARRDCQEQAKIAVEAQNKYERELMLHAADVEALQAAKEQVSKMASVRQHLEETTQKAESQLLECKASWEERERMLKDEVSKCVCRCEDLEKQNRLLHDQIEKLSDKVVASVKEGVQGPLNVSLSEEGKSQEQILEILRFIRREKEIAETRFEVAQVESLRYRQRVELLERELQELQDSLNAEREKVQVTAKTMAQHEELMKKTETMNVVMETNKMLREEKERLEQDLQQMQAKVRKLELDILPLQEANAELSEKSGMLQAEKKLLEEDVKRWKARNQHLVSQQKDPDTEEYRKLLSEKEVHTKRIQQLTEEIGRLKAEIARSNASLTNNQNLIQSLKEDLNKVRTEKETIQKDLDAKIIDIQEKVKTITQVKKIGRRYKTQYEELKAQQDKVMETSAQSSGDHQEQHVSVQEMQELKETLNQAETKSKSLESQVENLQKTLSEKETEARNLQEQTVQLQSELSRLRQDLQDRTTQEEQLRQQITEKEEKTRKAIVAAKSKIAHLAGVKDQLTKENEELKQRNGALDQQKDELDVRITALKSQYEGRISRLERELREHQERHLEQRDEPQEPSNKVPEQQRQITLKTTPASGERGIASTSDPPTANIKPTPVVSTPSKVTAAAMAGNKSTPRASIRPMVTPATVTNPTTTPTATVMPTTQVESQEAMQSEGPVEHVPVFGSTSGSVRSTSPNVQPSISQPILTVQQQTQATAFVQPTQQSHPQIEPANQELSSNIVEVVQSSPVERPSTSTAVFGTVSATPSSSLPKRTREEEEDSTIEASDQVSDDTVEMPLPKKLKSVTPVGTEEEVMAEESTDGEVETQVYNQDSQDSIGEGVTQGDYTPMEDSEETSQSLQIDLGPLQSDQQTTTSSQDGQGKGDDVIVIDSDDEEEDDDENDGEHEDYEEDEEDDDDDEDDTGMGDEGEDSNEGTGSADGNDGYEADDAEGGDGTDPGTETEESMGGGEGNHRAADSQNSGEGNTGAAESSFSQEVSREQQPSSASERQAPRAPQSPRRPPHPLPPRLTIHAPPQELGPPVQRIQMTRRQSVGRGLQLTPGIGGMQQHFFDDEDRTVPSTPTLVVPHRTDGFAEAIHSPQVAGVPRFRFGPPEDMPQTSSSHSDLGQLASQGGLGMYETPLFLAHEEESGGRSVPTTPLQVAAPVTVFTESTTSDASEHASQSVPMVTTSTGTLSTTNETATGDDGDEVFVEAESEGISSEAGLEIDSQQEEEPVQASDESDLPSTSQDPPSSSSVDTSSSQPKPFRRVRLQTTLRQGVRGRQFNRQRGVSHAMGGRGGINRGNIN
UniProt Q9Y265: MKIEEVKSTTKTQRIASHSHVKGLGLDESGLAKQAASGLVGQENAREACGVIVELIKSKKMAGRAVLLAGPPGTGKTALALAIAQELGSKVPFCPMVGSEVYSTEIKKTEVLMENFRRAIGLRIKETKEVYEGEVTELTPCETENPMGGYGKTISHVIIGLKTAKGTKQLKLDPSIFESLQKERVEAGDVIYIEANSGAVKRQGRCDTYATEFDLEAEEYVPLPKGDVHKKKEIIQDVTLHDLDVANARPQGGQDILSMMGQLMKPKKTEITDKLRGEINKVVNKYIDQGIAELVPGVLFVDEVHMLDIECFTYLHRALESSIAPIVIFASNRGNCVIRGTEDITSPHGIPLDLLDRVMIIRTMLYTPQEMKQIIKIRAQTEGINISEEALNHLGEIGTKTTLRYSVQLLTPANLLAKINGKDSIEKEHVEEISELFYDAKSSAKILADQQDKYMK
UniProt Q9BUF5: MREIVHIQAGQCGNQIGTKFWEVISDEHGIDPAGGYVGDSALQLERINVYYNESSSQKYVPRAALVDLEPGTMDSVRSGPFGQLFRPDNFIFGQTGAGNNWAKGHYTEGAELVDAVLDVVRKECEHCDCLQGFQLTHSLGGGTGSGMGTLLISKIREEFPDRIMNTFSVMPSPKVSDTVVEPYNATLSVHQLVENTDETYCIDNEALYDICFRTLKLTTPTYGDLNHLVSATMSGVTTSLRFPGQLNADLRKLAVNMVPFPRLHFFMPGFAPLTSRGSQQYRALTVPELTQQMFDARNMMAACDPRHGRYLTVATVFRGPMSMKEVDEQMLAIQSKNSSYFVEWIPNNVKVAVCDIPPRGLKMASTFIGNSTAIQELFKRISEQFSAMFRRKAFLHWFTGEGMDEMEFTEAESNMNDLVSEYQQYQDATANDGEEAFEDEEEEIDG

Results are given in words; binding and its absence hold for the method and conditions named. Binding seen in cells or lysates may run through a third protein. These calls come from enrichment with a bait or labelling near it, and not all partners need be listed. Sequences can lack the tags named with a protein.

Consider eight molecules from paper PMC9200292.

In the test the target is T1, BioLSF (biotinylated domain fused to LSF) (UniProt Q12800).
T1 sequence (chain, biotin on the Bio domain (biotinylated by endogenous enzymes)): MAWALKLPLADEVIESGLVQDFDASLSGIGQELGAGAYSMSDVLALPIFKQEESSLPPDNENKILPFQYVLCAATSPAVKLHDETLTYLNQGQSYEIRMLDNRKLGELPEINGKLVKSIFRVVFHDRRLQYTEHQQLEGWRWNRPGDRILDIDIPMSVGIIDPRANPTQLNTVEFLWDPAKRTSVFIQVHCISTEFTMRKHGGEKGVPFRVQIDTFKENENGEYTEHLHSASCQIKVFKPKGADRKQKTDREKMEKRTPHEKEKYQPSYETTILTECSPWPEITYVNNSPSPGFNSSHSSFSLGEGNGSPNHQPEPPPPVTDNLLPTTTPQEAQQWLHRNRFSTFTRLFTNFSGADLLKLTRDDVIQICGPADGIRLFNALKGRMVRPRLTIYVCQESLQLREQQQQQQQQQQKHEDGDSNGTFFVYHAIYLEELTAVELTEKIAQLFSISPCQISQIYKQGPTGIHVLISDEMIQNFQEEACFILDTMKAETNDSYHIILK
Nature of the test: affinity purification with mass spectrometry; mitotic DLD-1 derived cells induced with doxycycline to express BioLSF, 1 h with vehicle or 4 uM FQI1, cross-linked with 1% formaldehyde for 5 min; lysate bound to streptavidin beads, washed with 2% SDS, high salt buffer, LiCl buffer and PBS; controls: parental DLD-1 and uninduced cells; may also find proteins in complexes with direct BioLSF partners.
As for “Beta-catenin (from UniProt P35222 1-781)”, the binding entry is given as “binds”.
Turning to “Cytoplasmic dynein 1 heavy chain 1 (from UniProt Q14204 1-4646)”, the binding result is listed as “binds”.
With “Cytoskeleton-associated protein 5 (from UniProt Q14008 1-2032)” the entry was “binds”; with “Nucleoprotein TPR (from UniProt P12270 1-2363)”, “binds”.
On to “RuvB-like AAA ATPase 1 (from UniProt Q9Y265 1-456) (enzyme)”, for which the binding result is given as “binds”.
Next, “Tubulin beta-6 (from UniProt Q9BUF5 1-446)”: “binds”; B1: “binds”.
With B2 the entry was “binds”.
